The text below walks through data of PMC6892437.

The chains behind the UniProt entries cited, without tags or fusion partners.
UniProt O95858: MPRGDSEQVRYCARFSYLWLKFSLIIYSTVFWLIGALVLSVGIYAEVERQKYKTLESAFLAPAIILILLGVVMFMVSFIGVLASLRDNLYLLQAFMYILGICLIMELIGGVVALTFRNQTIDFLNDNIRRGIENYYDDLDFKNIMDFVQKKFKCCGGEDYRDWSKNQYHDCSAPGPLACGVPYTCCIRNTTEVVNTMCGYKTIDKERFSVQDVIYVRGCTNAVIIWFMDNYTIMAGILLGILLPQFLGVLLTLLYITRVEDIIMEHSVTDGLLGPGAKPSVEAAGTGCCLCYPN

No constants are given. Whether binding was seen depends on the method and setting. In cells and extracts the contact can be indirect. Some binding calls cover weakened binding; strength is not graded here. Tags and fused reporters may be left off the sequences shown.

For this assay, the target named is T1, CD81 (human (endogenous in U2OS)) (UniProt P60033).
T1 sequence: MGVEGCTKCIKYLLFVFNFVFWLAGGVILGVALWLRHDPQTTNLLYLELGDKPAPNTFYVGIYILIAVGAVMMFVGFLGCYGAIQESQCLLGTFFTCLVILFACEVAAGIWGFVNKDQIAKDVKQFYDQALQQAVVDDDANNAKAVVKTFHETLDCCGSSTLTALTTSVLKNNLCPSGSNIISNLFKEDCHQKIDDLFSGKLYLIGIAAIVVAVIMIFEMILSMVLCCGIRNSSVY
Put plainly: co-IP; U2OS cells transfected or not with Tspan5 or Tspan15, lysed in 1% Brij 97 with 1 mM CaCl2 and MgCl2 (30 mM Tris pH 7.4, 150 mM NaCl); immunoprecipitation of ADAM10 or CD81, Western blot. In general terms: In western blotting, separated proteins are transferred to a membrane and probed.

Take “untagged Tspan15 (ectopically expressed) (from UniProt O95858 1-294)”: the binding result was “no binding”.

B1: untagged Tspan5 (ectopically expressed) (protein, UniProt P62079 1-268)
chain: MSGKHYKGPEVSCCIKYFIFGFNVIFWFLGITFLGIGLWAWNEKGVLSNISSITDLGGFDPVWLFLVVGGVMFILGFAGCIGALRENTFLLKFFSVFLGIIFFLELTAGVLAFVFKDWIKDQLYFFINNNIRAYRDDIDLQNLIDFTQEYWQCCGAFGADDWNLNIYFNCTDSNASRERCGVPFSCCTKDPAEDVINTQCGYDARQKPEVDQQIVIYTKGCVPQFEKWLQDNLTIVAGIFIGIALLQIFGICLAQNLVSDIEAVRASW
As to B1, the binding entry is recorded as “binds”.
